Results from patent publication US7244614B2, “Fusion proteins and assays for molecular binding” (Cellomics, Inc., priority 2001, dated 2007).
For at least one compound, name, drawing or mass did not settle the structure.

Legend:
MAPK = MAPK binding fusion protein (first variant, mutated n-myc NLS) redistribution in transfected HeLa cells, ArrayScan II; assay type: cell-based; settings: serum starved 24 h, PMA 1.5 nM or sorbitol 200 mM, 1 hour
Source text: In this example, a fusion protein for detecting the availability for specific binding of MAPK, the protein of interest, is based on the distribution of the fusion protein between the cytoplasm and nucleus. It is constructed such that the detection domain is a GFP, the first localization sequence is a mutated NLS from n-myc, the second localization sequence is an NES from MAPKAP2, and the binding domain is the MAPK binding domain from RSK-1. The NLS and MAPK binding domain are separated by 2 amino acids. Operationally, the binding of MAPK to the binding domain blocks the localization of this fusion protein into the nucleus. […] Contacting the cell with a compound that activates MAPK, such as PMA or serum, will activate MAPK by inducing a dissociation of MAPK from MEK1, thus making MAPK available for binding to the RSK-1 binding domain in the fusion protein, and will shift the distribution of the fusion protein from the nucleus to the cytoplasm.
As shown below, this fusion protein was constructed using a GFP, a mutated nuclear localization signal from n-myc, based on human n-myc (Genbank accession number Y00664), the sequence from Proline 315 to Alanine 361 of MAPKAP2 (Genbank accession number X76850), which includes a nuclear export signal (between D^328 to E^351, SEQ ID NO:317), and the MAPK binding domain from RSK1 spanning from S^718 to T^733 (Genbank accession number L07597). […]

[1] = system: catalytic domain of cAMP-dependent protein kinase (cPKA); assay: cAMP-dependent protein kinase interaction fusion protein redistribution (nucleus/cytoplasm) in transfected HeLa cells, ArrayScan II; assay type: cell-based; settings: serum starved 24 h, forskolin 2 h or PMA 1 h
Source text: In this example, a fusion protein for detecting the availability for specific binding of the catalytic domain of cAMP-dependent protein kinase (cPKA), the protein of interest, is based on the distribution of the fusion protein between the cytoplasm and nucleus. It is constructed such that the detection domain is a GFP, the first localization domain is the NLS from SV40 large T-antigen, the second localization domain is the NES from MAPKAP2, and the binding domain is from CREB. The NLS and the binding domain are separated by 2 amino acids. The fusion protein is introduced into cells via DNA transfection or retrovirus infection. The catalytic domain cPKA binds to the regulatory domain of PKA (rPKA) in the absence of cAMP. With an increase in the concentration of cAMP, cPKA dissociates from rPKA, enabling cPKA to bind to the fusion protein. Operationally, the binding of cPKA to the binding domain blocks the localization of this fusion protein into the nucleus. […] The ratio of these intensities can be readily measured. This fusion protein can detect cPKA binding in either the nucleus or cytoplasm. Contacting the cell with a compound that causes a separation of cPKA from rPKA, such as forskolin, via an increase cAMP, will shift the distribution of the fusion protein from the nucleus to the cytoplasm. […]

C=C[C@@]1(C)CC(=O)[C@]2(O)[C@@]3(C)[C@@H](O)CCC(C)(C)[C@@H]3[C@H](O)[C@H](OC(C)=O)[C@@]2(C)O1 [forskolin]
change in localization of the fusion protein to the cytoplasm upon activation (MAPK): led to a change in localization of the fusion protein to the cytoplasm
change in localization of the fusion protein to the cytoplasm upon activation [1]: led to a change in localization of the fusion protein to the cytoplasm
